This is an account of results in PMC6719003.

The exact form of at least one protein or probe is not confirmed. For part of these data: A negative result means that nothing was seen under these conditions.

Data set [1] deals with GST-BrTCP7. In words: EMSA. To be noted: 250-fold unlabeled WT probe eliminates the complex; EMSA: 1 ug protein, 2e-6 umol biotin probe, binding buffer (composition and pH not given), 25 min at 30 C, 6% native PAGE, chemiluminescent detection; recombinant protein; protein details: N-terminal GST (pGEX-4T-1); label: 5' biotin. (A gel shift assay detects complexes by their altered migration in electrophoresis.)

Data set [2] deals with GST. Description: EMSA. As to conditions: tag-only control, same outcome stated for BrRCCR probe; EMSA: 1 ug protein, 2e-6 umol biotin probe, binding buffer (composition and pH not given), 25 min at 30 C, 6% native PAGE, chemiluminescent detection; recombinant protein; protein details: GST; label: 5' biotin.

As to “GCTAGACAGATACATACCTCCGGTCCCACCTGAACCAATCATAGCCTGGC (double strand) [BrOPR3 promoter probe (WT)]”, the binding result in data set [1] is “binds”; in data set [2] it was “no binding”.
“ATGAGAAGAATTTCGTGGTGGGTGGGTCCCATATGACGGAGATAAAGAAC (double strand) [BrRCCR promoter probe (WT)]”: the binding result in data set [1] is reported as “binds”.
